Results are given in words; binding and its absence hold for the method and conditions named. In cells and extracts the contact can be indirect. Some binding calls cover weakened binding; strength is not graded here.
Biological target: T1, endogenous OKL38 of U2OS cells (human (endogenous in U2OS)) (UniProt Q9UJX0)
T1 sequence: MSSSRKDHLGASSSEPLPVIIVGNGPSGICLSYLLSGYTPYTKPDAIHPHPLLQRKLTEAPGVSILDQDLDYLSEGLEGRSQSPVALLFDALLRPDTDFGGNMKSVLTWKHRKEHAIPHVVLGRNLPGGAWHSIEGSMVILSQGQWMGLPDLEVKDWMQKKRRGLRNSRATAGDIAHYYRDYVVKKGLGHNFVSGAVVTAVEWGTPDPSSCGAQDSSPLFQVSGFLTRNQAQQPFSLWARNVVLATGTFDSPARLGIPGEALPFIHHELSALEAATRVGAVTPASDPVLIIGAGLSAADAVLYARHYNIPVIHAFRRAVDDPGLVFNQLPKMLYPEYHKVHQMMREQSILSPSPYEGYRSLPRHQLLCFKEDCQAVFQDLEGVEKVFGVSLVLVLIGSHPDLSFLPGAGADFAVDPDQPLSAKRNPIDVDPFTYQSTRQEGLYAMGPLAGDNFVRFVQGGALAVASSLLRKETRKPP
Experiment: co-IP; U2OS nuclear extracts precipitated with anti-p53 or anti-OKL38 antibody (normal mouse or rabbit IgG as control); blots for p53 and OKL38

binding: binds
Substance: endogenous p53 of U2OS cells (from UniProt P04637 1-393)

Reference: publication PMC3422280
